This is an account of results in publication PMC6113209.

Construct, isoform or probe ends are uncertain for at least one entry. Where cells or extracts were used, other partners may take part. At least one verdict was read from the data and is not stated in words by the source. Where a protein sequence is shown, tags need not be part of it.

The target of the data set is T1, SOX9 (UniProt P48436).
T1 sequence (looked up, limits assumed): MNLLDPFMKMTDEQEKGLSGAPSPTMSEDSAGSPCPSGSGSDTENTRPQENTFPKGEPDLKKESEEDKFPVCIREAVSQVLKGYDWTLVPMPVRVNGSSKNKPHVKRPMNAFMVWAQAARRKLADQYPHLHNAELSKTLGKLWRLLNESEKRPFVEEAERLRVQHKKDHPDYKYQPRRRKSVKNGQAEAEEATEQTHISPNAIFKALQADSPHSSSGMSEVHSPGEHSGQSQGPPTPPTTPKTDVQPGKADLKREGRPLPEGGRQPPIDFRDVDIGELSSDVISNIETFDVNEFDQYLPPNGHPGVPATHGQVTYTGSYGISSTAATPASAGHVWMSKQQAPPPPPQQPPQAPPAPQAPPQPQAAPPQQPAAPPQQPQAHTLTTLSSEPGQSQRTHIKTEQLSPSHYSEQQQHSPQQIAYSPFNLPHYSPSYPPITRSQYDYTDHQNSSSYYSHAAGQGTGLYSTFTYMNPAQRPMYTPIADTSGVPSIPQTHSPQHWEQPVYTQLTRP
Put plainly: EMSA. Conditions: Beyotime LightShift chemiluminescent EMSA kit, manufacturer's instructions; pH and temperature not stated; protein in an extract.

For the sequence “AACTACCAAAATTGACAACAATAGTGTTTACTTCCACCTT (double strand) [COL10A1 promoter SOX9 probe]”, the binding result is “binds”.
